“And” between values parts separate entries of the source, which are not always exact repeats. Equal values may be shown once. ± gives the standard deviation of the averaged measurements. Some of the results follow.

In this test the test system is Madurella mycetomatis MM55. The test is described as follows: metabolic activity (growth) relative to DMSO growth control; higher = more fungal growth. Conditions: 10 µM.
In the case of `NS(=O)(=O)c1ccc(N/N=C2\C(=O)Nc3ccc(-c4cnco4)cc32)cc1`, the metabolic activity was 87.2 ± 3%. The value for `CC(=O)O.Nc1ncc2ccn(-c3ccc4[nH]ncc4c3)c2n1` was 94.71 ± 0.17%. As for `COCCOCCOc1cc2c(cc1OC)NC(=O)c1ccc(-c3ccc([N+](=O)[O-])c(OC)c3)cc1N2`, the metabolic activity stood at 84.4 ± 18%. With `CCc1cc(Nc2nccc(-c3c(-c4ccc(OC)c(C(=O)Nc5c(F)cccc5F)c4)nc4ccccn34)n2)c(OC)cc1N1CCC(N2CCN(S(C)(=O)=O)CC2)CC1` the figure was 107 ± 11%. The value for `O=C(Nc1ccc(NC(=O)C2CCCN(c3cccnn3)C2)cc1)c1ccncc1` (stereo unspecified) was 101 ± 28%; that for `NS(=O)(=O)c1cccc(-c2ccc3nccc(-c4cccc(S(N)(=O)=O)c4)c3c2)c1` was 85.1 ± 23%; that for `O=C(Nc1cccnc1)c1cc(-c2ccnc(F)c2)ccc1OCc1ccccc1` was 122 ± 56%.

On to `Cc1ncc2n1CCN(c1nc(C3=C(c4c[nH]c5sccc45)C(=O)NC3=O)c3ccccc3n1)C2`, for which the metabolic activity is 98.4 ± 8.6%. For `NC[C@@H](NC(=O)c1ccc(-c2cccnc2)cc1)c1ccccc1`, the metabolic activity worked out at 106 ± 19%. Consider `Cc1cc(-c2cnc(N)c3c(-c4ccc5scnc5c4)csc23)n(C)n1`, for which the metabolic activity was 73.4 ± 50%. Consider `CCn1cc(-c2ccnc3[nH]c(-c4cccc(CN(C)C)c4)cc23)c(-c2ccc(NC(=O)N(C)C)cc2)n1`, for which the metabolic activity came out at 111 ± 8.8%. The value for `O=C(Nc1n[nH]c2cc(-c3cccc(F)c3)ccc12)C1CC1` was 117 ± 4.2%. With `CN(C)CC(=O)N1CCC(C(=O)Nc2ncc(SCc3ncc(C(C)(C)C)o3)s2)CC1` the figure was 104 ± 5.1%; with `COc1ccc2[nH]c3c4[nH]c5ccc(OC)cc5c4c4c(c3c2c1)C(=O)NC4=O`, 109 ± 26%; with `COc1ccc2nc(-c3cccc(C)n3)nc(Nc3ccncc3)c2c1`, 90.6 ± 20%. Regarding `CC(C)(C)OC(=O)NCCCNS(=O)(=O)c1ccc(Nc2ncc3c(n2)Nc2ccsc2C(=O)N3)cc1`, the metabolic activity was 106 ± 24%. The value for `COc1cccc(-n2ncc3c(N/N=C/c4ccncc4)ncnc32)c1` was 93.6 ± 42%; that for `Cn1ccc2ncnc(Oc3ccc(NC(=O)Nc4ccccc4)cc3)c21` was 105 ± 6.6%. Turning to `CN(C)Cc1nc2c(sc3ccc(-c4ccc(O)cc4)cc32)c(=O)[nH]1.Cl`, the metabolic activity was determined as 90.2 ± 28%.

Regarding `COc1ccc2cc(-c3c(-c4ccncc4)nc(-c4ccc(S(C)(=O)=O)cc4C)n3C)ccc2c1`, the metabolic activity was 91.5 ± 16%. The value for `O=C(Nc1cnccn1)Nc1ccnc2c(F)cccc12` was 97.4 ± 3.2%; that for `Nc1nc(-c2ccccc2F)c(-c2ccnc3ccccc23)s1` was 48.8 ± 56%; that for `CNc1nc(Nc2ccc(C(=O)N3CCOCC3)cc2OC)nc2[nH]cc(Cl)c12` was 101 ± 15%. The value for `CCC(NN(C)C)=C1C(=O)Nc2ccc(C(C)=O)cc21` was 102 ± 20%; that for `Cc1cc(O)cc(C)c1/C=C/c1cncc(C(N)=O)c1` was 104 ± 1.9%.

On to `CNc1nc(-c2ccc3c(N)n[nH]c3c2)cc(N2C[C@@H](C(=O)Nc3ccccc3)CC[C@H]2C)n1`, for which the metabolic activity was found to be 69.2 ± 0.74%.

For `COc1ccc(-c2cc3c(C)nc(N)nc3n([C@H]3CC[C@H](O)CC3)c2=O)cn1`, the metabolic activity stood at 113 ± 1.6%. The value for `CN(C)CCN(C)C(=O)c1cc(-c2ccncc2)c(-c2ccc(Cl)c(O)c2)o1` was 94.8 ± 22%; that for `COc1cc2nccc(Nc3ccc(OCc4ccc(NC(C)=O)cc4)cc3)c2cc1OC` was 72.6 ± 17%; that for `Cc1ccc(-n2c(=O)c3cnc(Nc4ccc(N5CCN(C)CC5)cc4)nc3n3ccnc23)c(Cl)c1.O=C(O)C(F)(F)F.O=C(O)C(F)(F)F` was 83.1 ± 33%. With `COc1ccccc1-c1cc(/C=C2\C(=O)Nc3ncc(Br)cc32)cc(Br)c1O` the figure was 134 ± 25%; with `CCc1c(-c2nonc2N)nc2c(C#Cc3ccccc3)ccc(N3C[C@H](N)[C@@H](O)C3)n12`, 92.9 ± 20%.

As for `CCNc1n[nH]c2ccc(C3C(C#N)=C(C)NC(C)=C3C#N)cc12`, the metabolic activity came to 79.1 ± 28%.

For the compound `COCCNC(=O)c1ccc(-c2cc(C(=O)NC3CC3)cc(F)c2C)cc1`, the metabolic activity stood at 112 ± 1.5%.

For `C[C@@H]1CCN(C(=O)CC#N)C[C@@H]1N(C)c1ncnc2[nH]ccc12`, the metabolic activity is 95.6 ± 31%. With `C[C@@H]1CN(c2cc(-c3n[nH]c4ccc(OC5(C)CC5)cc34)ncn2)C[C@H](C)O1` the figure was 88% and 103%.

These data come from the supplement of paper PMC12425257.
